Test results published in paper PMC7229206, “Split Intein-Mediated Protein Ligation for detecting protein-protein interactions and their inhibition” (Nature Communications, 2020).
No constants are given. Whether binding was seen depends on the method and setting. In cells and extracts the contact can be indirect. Some entries that bind do so weakly or less than the wild type. One block for each molecule: values may come before it.

Protein sequences, listed by entry. Tags and fused reporters are not part of them. Residues count along the entry.
UniProt P49821, residues 21-464: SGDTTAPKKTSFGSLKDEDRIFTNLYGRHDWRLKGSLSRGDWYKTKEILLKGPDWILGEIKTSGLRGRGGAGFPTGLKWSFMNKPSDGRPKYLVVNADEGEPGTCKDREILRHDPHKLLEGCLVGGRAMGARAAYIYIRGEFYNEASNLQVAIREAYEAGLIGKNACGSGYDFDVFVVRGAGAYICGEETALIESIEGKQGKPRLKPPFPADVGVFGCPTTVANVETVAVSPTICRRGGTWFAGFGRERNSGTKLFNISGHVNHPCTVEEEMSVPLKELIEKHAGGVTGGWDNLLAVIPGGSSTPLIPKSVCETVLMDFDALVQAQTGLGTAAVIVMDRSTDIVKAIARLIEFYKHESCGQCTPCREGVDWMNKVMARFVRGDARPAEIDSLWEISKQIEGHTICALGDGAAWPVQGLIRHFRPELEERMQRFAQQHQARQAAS
UniProt P31040, residues 43-664: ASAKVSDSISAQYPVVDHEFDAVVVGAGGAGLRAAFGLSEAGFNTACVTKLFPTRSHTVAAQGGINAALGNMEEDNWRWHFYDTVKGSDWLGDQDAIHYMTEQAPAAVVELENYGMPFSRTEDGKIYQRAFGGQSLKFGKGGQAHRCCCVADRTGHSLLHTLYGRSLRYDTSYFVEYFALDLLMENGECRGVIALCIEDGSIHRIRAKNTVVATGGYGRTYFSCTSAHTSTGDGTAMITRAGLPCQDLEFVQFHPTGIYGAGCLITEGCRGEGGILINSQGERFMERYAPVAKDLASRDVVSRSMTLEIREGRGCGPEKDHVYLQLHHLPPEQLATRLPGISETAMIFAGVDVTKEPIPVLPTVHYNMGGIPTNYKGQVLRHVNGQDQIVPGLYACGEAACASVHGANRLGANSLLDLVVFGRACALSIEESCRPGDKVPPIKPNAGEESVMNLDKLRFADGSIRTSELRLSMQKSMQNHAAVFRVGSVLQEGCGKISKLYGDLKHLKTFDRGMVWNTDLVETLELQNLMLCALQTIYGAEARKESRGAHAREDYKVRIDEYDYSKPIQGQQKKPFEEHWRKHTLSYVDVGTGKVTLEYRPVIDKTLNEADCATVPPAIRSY
UniProt P28482: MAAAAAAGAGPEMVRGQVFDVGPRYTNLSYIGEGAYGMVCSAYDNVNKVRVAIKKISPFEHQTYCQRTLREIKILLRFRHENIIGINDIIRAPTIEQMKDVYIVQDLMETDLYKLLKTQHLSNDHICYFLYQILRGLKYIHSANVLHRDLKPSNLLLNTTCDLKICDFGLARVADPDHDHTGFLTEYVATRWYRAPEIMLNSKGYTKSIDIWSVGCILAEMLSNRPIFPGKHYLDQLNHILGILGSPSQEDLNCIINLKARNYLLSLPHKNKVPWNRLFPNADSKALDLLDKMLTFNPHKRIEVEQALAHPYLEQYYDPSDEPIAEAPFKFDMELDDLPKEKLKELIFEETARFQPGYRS
UniProt Q3ZCQ8, residues 45-353: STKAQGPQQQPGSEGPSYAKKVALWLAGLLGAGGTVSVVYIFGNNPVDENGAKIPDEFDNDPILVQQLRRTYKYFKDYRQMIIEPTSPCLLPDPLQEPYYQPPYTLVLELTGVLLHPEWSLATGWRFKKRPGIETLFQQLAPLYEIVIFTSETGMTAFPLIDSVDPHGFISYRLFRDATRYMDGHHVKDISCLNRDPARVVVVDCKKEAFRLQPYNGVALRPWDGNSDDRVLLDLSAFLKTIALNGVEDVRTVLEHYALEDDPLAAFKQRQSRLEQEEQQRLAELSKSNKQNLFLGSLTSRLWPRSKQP
UniProt P56181, residues 35-108: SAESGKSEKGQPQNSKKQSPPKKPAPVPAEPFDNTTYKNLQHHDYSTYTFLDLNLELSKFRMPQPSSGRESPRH

How the values were obtained:
NDUFV1 (bait, IN format) = NDUFV1 (bait, IN format) (UniProt P49821); assay: split reporter; SIMPL with ELISA read-out: HEK 293 cells in 96- or 384-well plates, lysed in TNE buffer; spliced product captured on α-FLAG and detected with HRP-conjugated α-HA; signal normalised to bait expression; rapamycin doses for 30 min for FRB/FKBP1A; venetoclax or osimertinib given with tetracycline 6 h before assay for BAX/BCL2 and BAX/BCL2L1
ETFA (bait, IN format) = biological target: T1, ETFA (bait, IN format) (UniProt P13804); assay: as above
T1 sequence: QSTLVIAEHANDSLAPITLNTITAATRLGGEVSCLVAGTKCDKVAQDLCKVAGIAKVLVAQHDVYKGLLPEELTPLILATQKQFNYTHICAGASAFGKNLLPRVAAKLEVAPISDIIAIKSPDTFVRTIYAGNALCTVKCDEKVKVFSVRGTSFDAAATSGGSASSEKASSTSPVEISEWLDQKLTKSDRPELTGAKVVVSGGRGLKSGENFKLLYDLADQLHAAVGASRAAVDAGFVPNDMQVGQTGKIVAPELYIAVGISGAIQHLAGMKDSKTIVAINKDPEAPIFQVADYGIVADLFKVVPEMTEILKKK

SDHA (bait, IN format) = SDHA (bait, IN format) (UniProt P31040); assay: as above
IN-fused MAPK1 (ERK2) = IN-fused MAPK1 (ERK2) (UniProt P28482); assay: split reporter; SIMPL of MAPK1 and ELK1 in cells stimulated with tetradecanoylphorbol acetate (TPA); read-out not told in the text (Supplementary Fig. 4d)
PDHA1 (bait, IN format) [1] = biological target: T2, PDHA1 (bait, IN format) (UniProt P08559); assay: split reporter; SIMPL with ELISA read-out: HEK 293 cells in 96- or 384-well plates, lysed in TNE buffer; spliced product captured on α-FLAG and detected with HRP-conjugated α-HA; signal normalised to bait expression; rapamycin doses for 30 min for FRB/FKBP1A; venetoclax or osimertinib given with tetracycline 6 h before assay for BAX/BCL2 and BAX/BCL2L1
T2 sequence: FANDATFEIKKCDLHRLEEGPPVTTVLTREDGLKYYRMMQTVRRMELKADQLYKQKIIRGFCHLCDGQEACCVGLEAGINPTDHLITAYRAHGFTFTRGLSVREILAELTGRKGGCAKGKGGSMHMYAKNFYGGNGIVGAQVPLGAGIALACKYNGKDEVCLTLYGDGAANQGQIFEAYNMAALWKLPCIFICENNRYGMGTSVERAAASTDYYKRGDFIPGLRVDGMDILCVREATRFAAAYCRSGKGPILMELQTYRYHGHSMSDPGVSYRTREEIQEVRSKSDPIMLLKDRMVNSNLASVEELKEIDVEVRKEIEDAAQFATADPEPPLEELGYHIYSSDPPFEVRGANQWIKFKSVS

PDHA1 (bait, IN format) [2] = biological target: T2, PDHA1 (bait, IN format); assay: condition: only PDHA1 and PDHB separately expressed in different cells and the two cell lysates mixed; split reporter; control of SIMPL ELISA: bait and prey expressed in separate cells, the two cell lysates mixed and assayed by ELISA
TIMM50 (bait, IN format) = TIMM50 (bait, IN format) (UniProt Q3ZCQ8); assay: split reporter; SIMPL with ELISA read-out: HEK 293 cells in 96- or 384-well plates, lysed in TNE buffer; spliced product captured on α-FLAG and detected with HRP-conjugated α-HA; signal normalised to bait expression; rapamycin doses for 30 min for FRB/FKBP1A; venetoclax or osimertinib given with tetracycline 6 h before assay for BAX/BCL2 and BAX/BCL2L1

Molecule: NDUFV3 (prey, IC or CIC format) (from UniProt P56181 35-108)
- binding (NDUFV1 (bait, IN format)): binds

B1: ETFB (prey, IC or CIC format) (protein, UniProt P38117 1-255)
chain: MAELRVLVAVKRVIDYAVKIRVKPDRTGVVTDGVKHSMNPFCEIAVEEAVRLKEKKLVKEVIAVSCGPAQCQETIRTALAMGADRGIHVEVPPAEAERLGPLQVARVLAKLAEKEKVDLVLLGKQAIDDDCNQTGQMTAGFLDWPQGTFASQVTLEGDKLKVEREIDGGLETLRLKLPAVVTADLRLNEPRYATLPNIMKAKKKKIEVIKPGDLGVDLTSKLSVISVEDPPQRTAGVKVETTEDLVAKLKEIGRI
- binding (ETFA (bait, IN format)): binds

B3: ELK1 (SIMPL prey) (protein, UniProt P19419 1-428)
chain: MDPSVTLWQFLLQLLREQGNGHIISWTSRDGGEFKLVDAEEVARLWGLRKNKTNMNYDKLSRALRYYYDKNIIRKVSGQKFVYKFVSYPEVAGCSTEDCPPQPEVSVTSTMPNVAPAAIHAAPGDTVSGKPGTPKGAGMAGPGGLARSSRNEYMRSGLYSTFTIQSLQPQPPPHPRPAVVLPSAAPAGAAAPPSGSRSTSPSPLEACLEAEEAGLPLQVILTPPEAPNLKSEELNVEPGLGRALPPEVKVEGPKEELEVAGERGFVPETTKAEPEVPPQEGVPARLPAVVMDTAGQAGGHAASSPEISQPQKGRKPRDLELPLSPSLLGGPGPERTPGSGSGSGLQAPGPALTPSLLPTHTLTPVLLTPSSLPPSIHFWSTLSPIAPRSPAKLSFQFPSSGSAQVHIPSISVDGLSTPVVLSPGPQKP
- binding (IN-fused MAPK1 (ERK2)): binds

Further lines, results first:

- binding (SDHA (bait, IN format)): binds
B2: SDHB (prey, IC or CIC format) (protein, UniProt P21912 29-280)
chain: AQTAAATAPRIKKFAIYRWDPDKAGDKPHMQTYEVDLNKCGPMVLDALIKIKNEVDSTLTFRRSCREGICGSCAMNINGGNTLACTRRIDTNLNKVSKIYPLPHMYVIKDLVPDLSNFYAQYKSIEPYLKKKDESQEGKQQYLQSIEEREKLDGLYECILCACCSTSCPSYWWNGDKYLGPAVLMQAYRWMIDSRDDFTEERLAKLQDPFSLYRCHTIMNCTRTCPKGLNPGKAIAEIKKMMATYKEKKASV

- binding (PDHA1 (bait, IN format) [1]): binds
- binding (PDHA1 (bait, IN format) [2]): no binding
B4: PDHB (prey, IC or CIC format) (protein, UniProt P11177 31-359)
chain: LQVTVRDAINQGMDEELERDEKVFLLGEEVAQYDGAYKVSRGLWKKYGDKRIIDTPISEMGFAGIAVGAAMAGLRPICEFMTFNFSMQAIDQVINSAAKTYYMSGGLQPVPIVFRGPNGASAGVAAQHSQCFAAWYGHCPGLKVVSPWNSEDAKGLIKSAIRDNNPVVVLENELMYGVPFEFPPEAQSKDFLIPIGKAKIERQGTHITVVSHSRPVGHCLEAAAVLSKEGVECEVINMRTIRPMDMETIEASVMKTNHLVTVEGGWPQFGVGAEICARIMEGPAFNFLDAPAVRVTGADVPMPYAKILEDNSIPQVKDIIFAIKKTLNI

- binding (TIMM50 (bait, IN format)): binds
B5: TIMM23 (prey, IC or CIC format) (protein, UniProt O14925 1-209)
chain: MEGGGGSGNKTTGGLAGFFGAGGAGYSHADLAGVPLTGMNPLSPYLNVDPRYLVQDTDEFILPTGANKTRGRFELAFFTIGGCCMTGAAFGAMNGLRLGLKETQNMAWSKPRNVQILNMVTRQGALWANTLGSLALLYSAFGVIIEKTRGAEDDLNTVAAGTMTGMLYKCTGGLRGIARGGLTGLTLTSLYALYNNWEHMKGSLLQQSL
